Measurements reported in PubChem BioAssay AID743121 (NCATS, 2013).

- Screen: 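Knock-downs that sensitise breast cancer cells to camptothecin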 (primary screen)
- System: MDA-MB-231 cells, a human breast cancer line
- Reagent: single siRNA against human genes, 20 nM siRNA (0.8 pmol per well)
- Timing: 120 h (drug added 48 h after transfection, read 72 h later)
- Challenge: camptothecin 20 nM (about EC30) for 72 h; vehicle 0.1% DMSO in parallel plates
- Read-out: 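CellTiter-Glo ATP signal, scaled to control siRNA as percent viability; sensitisation given as log2 of untreated divided by camptothecin-treated viability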
- Scale: log2 vehicle/camptothecin viability: higher = stronger sensitisation to camptothecin; viability with camptothecin: higher = more viable cells
- Active means: 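Active genes have an RSA gene-level p-value below 0.001, computed from the ratios of their separate siRNAs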
The deposit covers about 26,000 reagents; below is a part drawn at random. 167 of them (0.63%) count as active. 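Calls are per gene from RSA p-values that are not deposited; an individual active-marked siRNA can sensitise only weakly.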 The numbers tell different reagents against one gene apart. Not all columns of the deposit are shown.

The first 4 records, to show the layout:
gene knocked down	siRNA no.	log2 vehicle/camptothecin viability	viability with camptothecin (% of control)	outcome
HDAC9 (histone deacetylase 9)	1	0.0405	71.9	inactive
HDAC9 (histone deacetylase 9)	2	0.132	84.6	inactive
HDAC9 (histone deacetylase 9)	3	0.882	36	inactive
STRAP (serine/threonine kinase receptor associated protein)	1	-0.467	72.8	inactive

Main list, from the first entry:
gene knocked down	siRNA no.	log2 vehicle/camptothecin viability	viability with camptothecin (% of control)	outcome
HDAC9 (histone deacetylase 9)	1	0.0405	71.9	inactive
HDAC9 (histone deacetylase 9)	2	0.132	84.6	inactive
HDAC9 (histone deacetylase 9)	3	0.882	36	inactive
STRAP (serine/threonine kinase receptor associated protein)	1	-0.467	72.8	inactive
STRAP (serine/threonine kinase receptor associated protein)	2	0.326	75.3	inactive
STRAP (serine/threonine kinase receptor associated protein)	3	-0.48	104	inactive
STRAP (serine/threonine kinase receptor associated protein)	4	0.103	90.7	inactive
YWHAQ	1	1.14	30.2	inactive
YWHAQ	2	-0.133	96.1	inactive
YWHAQ	3	0.369	53	inactive
YWHAQ	4	-0.542	104	inactive
EGFL6 (EGF like domain multiple 6)	1	-0.644	74.4	inactive
EGFL6 (EGF like domain multiple 6)	2	0.611	35.7	inactive
EGFL6 (EGF like domain multiple 6)	3	-0.205	101	inactive
EGFL6 (EGF like domain multiple 6)	4	0.0872	96.3	inactive
RGS16 (regulator of G protein signaling 16)	1	-0.168	68.7	inactive
RGS16 (regulator of G protein signaling 16)	2	0.0394	62.7	inactive
RGS16 (regulator of G protein signaling 16)	3	0.0196	116	inactive
RGS16 (regulator of G protein signaling 16)	4	-0.0932	61.5	inactive
NEIL2 (nei like DNA glycosylase 2)	1	0.0475	74.2	inactive
NEIL2 (nei like DNA glycosylase 2)	2	0.0598	86.2	inactive
NEIL2 (nei like DNA glycosylase 2)	3	-0.0256	98.9	inactive
NEIL2 (nei like DNA glycosylase 2)	4	-0.483	57	inactive
LEFTY2 (left-right determination factor 2)	1	-0.291	54.6	inactive
LEFTY2 (left-right determination factor 2)	2	0.365	80.3	inactive
LEFTY2 (left-right determination factor 2)	3	-0.257	90.7	inactive
TSPAN31 (tetraspanin 31)	1	-0.0707	111	inactive
TSPAN31 (tetraspanin 31)	2	0.026	78.9	inactive
TSPAN31 (tetraspanin 31)	3	0.487	43.8	inactive
TSPAN31 (tetraspanin 31)	4	-0.412	83.2	inactive
TOMM40L (translocase of outer mitochondrial membrane 40 like)	1	-0.154	110	inactive
TOMM40L (translocase of outer mitochondrial membrane 40 like)	2	0.458	39.5	inactive
TOMM40L (translocase of outer mitochondrial membrane 40 like)	3	-0.191	57.1	inactive
OR7A17 (olfactory receptor family 7 subfamily A member 17)	1	0.282	79.7	inactive
OR7A17 (olfactory receptor family 7 subfamily A member 17)	2	0.756	51	inactive
OR7A17 (olfactory receptor family 7 subfamily A member 17)	3	0.256	59	inactive
OR7A17 (olfactory receptor family 7 subfamily A member 17)	4	-0.33	75.4	inactive
PRSS3 (serine protease 3)	1	0.146	23.6	inactive
PRSS3 (serine protease 3)	2	0.0406	29.4	inactive
PRSS3 (serine protease 3)	3	0.151	39.2	inactive
RTN4IP1 (reticulon 4 interacting protein 1)	1	0.155	87	inactive
RTN4IP1 (reticulon 4 interacting protein 1)	2	0.805	41.7	inactive
RTN4IP1 (reticulon 4 interacting protein 1)	3	-0.151	125	inactive
RTN4IP1 (reticulon 4 interacting protein 1)	4	0.102	111	inactive
VAV1 (vav guanine nucleotide exchange factor 1)	1	-0.192	87.9	inactive
VAV1 (vav guanine nucleotide exchange factor 1)	2	-0.134	114	inactive
VAV1 (vav guanine nucleotide exchange factor 1)	3	-0.047	70.3	inactive
VAV1 (vav guanine nucleotide exchange factor 1)	4	0.157	71.5	inactive
